According to paper PMC7199003:
These are yes or no findings as the source states them, for the method shown. Binding seen in cells or lysates may run through a third protein. Here binding means that the protein was enriched with, or labelled near, the bait; the list need not be complete. A no says only that the protein was not detected with the bait.

The chains behind the UniProt entries cited, without tags or fusion partners.
UniProt P02730: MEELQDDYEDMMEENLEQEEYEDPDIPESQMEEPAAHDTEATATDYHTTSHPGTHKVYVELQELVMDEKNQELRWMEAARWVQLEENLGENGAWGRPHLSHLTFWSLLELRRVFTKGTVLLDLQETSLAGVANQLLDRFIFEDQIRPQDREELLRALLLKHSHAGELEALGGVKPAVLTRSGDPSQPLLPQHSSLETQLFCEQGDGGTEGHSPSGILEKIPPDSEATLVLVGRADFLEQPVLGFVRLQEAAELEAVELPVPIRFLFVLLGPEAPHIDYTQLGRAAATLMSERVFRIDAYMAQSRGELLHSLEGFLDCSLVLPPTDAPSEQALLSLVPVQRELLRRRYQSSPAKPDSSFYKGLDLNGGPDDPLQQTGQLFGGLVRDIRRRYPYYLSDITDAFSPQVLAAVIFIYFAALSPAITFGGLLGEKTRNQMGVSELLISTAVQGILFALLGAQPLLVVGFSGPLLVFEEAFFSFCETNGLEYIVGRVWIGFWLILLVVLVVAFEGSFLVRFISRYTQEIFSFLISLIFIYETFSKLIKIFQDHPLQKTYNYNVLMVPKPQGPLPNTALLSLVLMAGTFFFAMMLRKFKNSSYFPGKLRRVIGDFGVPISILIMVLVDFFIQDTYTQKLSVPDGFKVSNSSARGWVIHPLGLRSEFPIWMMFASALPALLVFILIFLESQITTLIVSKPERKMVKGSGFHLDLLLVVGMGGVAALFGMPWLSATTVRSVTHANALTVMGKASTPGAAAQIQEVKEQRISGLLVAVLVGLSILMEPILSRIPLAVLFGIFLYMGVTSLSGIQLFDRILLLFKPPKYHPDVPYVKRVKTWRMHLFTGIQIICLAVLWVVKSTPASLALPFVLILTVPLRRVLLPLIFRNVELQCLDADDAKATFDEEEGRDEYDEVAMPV
UniProt P35579: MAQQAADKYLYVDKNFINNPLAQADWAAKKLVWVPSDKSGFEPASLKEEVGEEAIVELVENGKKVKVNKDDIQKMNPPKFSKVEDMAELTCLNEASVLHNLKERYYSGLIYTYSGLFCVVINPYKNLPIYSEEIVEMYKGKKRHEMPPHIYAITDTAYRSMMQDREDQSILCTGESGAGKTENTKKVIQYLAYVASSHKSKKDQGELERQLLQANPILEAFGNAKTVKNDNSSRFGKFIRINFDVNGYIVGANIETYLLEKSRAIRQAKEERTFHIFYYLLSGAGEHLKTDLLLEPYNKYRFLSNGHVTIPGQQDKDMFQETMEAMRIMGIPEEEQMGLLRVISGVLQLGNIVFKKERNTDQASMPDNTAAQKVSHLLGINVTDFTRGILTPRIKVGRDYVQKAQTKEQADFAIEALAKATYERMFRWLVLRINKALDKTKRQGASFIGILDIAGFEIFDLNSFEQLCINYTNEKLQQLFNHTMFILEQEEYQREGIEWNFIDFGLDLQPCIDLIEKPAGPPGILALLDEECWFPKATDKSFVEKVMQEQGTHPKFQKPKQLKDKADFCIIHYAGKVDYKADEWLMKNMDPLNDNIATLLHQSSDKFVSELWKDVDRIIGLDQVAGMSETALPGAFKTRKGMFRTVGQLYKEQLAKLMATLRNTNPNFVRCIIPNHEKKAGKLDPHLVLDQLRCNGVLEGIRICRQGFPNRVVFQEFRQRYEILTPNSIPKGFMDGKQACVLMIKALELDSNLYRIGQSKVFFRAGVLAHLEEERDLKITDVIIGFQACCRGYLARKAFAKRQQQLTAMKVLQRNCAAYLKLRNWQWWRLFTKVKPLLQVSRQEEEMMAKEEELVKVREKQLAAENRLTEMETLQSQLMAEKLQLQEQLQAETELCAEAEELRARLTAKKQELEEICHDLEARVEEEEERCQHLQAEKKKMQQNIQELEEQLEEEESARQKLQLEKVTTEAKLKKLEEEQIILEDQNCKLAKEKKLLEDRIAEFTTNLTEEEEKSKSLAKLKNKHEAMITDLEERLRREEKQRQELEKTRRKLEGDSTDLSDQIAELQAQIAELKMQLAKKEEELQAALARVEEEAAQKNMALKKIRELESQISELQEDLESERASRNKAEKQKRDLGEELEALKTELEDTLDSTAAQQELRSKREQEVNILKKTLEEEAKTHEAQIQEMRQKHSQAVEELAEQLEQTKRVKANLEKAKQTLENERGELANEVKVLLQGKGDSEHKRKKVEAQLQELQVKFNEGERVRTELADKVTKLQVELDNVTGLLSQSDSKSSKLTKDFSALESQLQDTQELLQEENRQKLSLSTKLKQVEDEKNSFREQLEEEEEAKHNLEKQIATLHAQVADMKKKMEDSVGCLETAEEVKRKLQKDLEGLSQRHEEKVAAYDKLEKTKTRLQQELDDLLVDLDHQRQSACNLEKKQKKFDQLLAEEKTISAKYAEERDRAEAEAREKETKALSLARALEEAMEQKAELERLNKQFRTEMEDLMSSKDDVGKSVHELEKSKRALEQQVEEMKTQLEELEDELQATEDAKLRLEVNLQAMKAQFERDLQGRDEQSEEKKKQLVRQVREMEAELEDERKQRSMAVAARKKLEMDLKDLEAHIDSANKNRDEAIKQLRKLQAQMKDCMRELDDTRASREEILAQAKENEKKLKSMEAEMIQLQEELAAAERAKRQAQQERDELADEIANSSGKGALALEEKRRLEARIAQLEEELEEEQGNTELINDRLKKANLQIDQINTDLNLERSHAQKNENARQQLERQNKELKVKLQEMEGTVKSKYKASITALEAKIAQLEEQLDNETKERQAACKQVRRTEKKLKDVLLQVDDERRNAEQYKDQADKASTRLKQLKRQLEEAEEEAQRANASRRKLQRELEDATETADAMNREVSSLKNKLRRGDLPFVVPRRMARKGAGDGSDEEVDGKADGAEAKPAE
UniProt P35580: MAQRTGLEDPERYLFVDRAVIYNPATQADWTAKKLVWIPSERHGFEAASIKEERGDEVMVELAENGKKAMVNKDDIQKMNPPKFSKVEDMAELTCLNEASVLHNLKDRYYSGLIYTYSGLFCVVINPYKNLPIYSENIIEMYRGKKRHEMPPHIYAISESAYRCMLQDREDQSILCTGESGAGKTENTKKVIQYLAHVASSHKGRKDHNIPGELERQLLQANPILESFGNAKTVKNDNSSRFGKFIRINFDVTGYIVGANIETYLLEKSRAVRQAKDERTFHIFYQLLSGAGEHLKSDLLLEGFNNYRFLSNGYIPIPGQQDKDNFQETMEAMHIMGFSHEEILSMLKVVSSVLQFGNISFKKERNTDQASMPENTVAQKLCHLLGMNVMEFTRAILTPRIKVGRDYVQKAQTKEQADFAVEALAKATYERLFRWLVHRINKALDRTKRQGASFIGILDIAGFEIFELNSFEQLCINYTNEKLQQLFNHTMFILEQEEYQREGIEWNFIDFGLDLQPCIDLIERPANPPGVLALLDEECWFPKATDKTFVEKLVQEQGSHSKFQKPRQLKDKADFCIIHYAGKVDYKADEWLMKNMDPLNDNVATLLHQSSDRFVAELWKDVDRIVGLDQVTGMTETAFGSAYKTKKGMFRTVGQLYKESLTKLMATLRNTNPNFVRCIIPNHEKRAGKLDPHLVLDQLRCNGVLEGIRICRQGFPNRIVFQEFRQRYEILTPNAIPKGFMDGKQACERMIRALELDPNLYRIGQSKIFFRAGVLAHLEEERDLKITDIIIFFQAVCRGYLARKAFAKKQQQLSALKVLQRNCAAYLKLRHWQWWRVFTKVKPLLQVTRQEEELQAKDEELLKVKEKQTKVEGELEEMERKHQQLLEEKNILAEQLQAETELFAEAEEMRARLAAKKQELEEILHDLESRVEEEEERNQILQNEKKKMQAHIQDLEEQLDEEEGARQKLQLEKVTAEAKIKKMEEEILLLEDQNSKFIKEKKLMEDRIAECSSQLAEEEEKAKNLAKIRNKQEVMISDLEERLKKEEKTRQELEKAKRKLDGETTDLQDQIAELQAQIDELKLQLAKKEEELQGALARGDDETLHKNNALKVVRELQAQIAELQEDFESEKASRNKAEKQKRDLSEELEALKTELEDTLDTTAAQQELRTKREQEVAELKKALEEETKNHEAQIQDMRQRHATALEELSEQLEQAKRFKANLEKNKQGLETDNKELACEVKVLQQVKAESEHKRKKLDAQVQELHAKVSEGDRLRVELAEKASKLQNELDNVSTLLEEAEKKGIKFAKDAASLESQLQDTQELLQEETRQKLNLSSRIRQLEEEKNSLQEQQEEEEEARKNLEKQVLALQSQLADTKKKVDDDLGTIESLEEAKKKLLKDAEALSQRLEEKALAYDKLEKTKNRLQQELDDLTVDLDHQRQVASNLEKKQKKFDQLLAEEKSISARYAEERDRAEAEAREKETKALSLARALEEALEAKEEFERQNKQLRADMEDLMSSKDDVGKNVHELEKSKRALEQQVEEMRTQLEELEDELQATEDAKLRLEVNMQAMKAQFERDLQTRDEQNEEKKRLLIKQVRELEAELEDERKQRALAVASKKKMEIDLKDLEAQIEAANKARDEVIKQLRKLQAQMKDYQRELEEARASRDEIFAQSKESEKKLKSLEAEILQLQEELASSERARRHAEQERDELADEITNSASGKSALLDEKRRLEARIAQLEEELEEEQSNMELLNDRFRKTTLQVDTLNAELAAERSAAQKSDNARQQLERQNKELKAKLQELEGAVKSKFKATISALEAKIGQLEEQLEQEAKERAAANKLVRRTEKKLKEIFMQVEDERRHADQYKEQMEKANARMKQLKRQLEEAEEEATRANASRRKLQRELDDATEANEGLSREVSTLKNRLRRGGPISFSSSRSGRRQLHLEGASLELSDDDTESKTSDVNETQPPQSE

Target: erythrocyte anion exchanger 1 (AE1, band 3), wild type (human (endogenous in cultured erythroblasts)) (UniProt P02730)
Assay: affinity purification with mass spectrometry; band 3 immunoprecipitated with rat monoclonal anti-band 3 BRAC66 on protein G sepharose from lysates (1% Nonidet-P40, 150 mM KCl, 10 mM Tris-HCl, pH 7.4) of cultured erythroblasts: homozygous SAO day 27, control day 14; SDS-PAGE, LC-MS/MS, spectral counts compared

binding | Substance
no binding | non-muscle myosin IIA (from UniProt P35579 1-1960)
no binding | non-muscle myosin IIB (from UniProt P35580 1-1976)
